# Experimental data reported in patent publication US20170240955.
# Sequences of proteins named here, by UniProt entry; tags and fusion partners are left off. A change or cut given only in a name is not applied to a line headed by its entry.
# UniProt P07636: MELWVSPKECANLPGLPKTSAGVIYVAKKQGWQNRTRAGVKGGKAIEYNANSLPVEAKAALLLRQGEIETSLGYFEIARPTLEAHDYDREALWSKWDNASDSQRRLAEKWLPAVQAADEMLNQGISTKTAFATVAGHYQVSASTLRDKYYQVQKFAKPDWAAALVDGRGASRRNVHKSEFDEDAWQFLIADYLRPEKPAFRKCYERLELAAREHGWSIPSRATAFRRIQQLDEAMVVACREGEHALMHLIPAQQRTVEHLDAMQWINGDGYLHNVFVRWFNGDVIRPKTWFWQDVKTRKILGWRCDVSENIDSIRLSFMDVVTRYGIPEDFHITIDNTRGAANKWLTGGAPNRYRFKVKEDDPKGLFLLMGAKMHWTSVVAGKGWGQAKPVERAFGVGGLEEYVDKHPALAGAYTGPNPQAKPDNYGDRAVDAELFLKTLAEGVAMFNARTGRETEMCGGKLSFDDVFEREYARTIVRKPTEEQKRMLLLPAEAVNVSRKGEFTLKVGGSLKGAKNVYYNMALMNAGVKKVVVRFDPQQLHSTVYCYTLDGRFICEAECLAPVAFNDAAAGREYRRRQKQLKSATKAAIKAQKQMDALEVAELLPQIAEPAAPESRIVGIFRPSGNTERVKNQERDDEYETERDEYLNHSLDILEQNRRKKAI
# Biological target: MuA transposase (UniProt P07636)
# Assay: activity assay
# Conditions: transposition of adapter into lambda DNA (SEQ 31); 25 mM Tris-HCl pH 8.0, 10 mM MgCl2, 110 mM NaCl, 30 C; Agilent chip trace; purified recombinant protein; protein details: Thermo
sequence,measurement,value
GCGTTCTGTTTCGGATGTATGTTTTCATACATCCGAAACAGAACGCTTTTGTTTTCGCATTTATCGTGAAACGCTTTCGCGTTTTTCGTGCGCCGCTTCA / GATCTGAAGCGGCGCACGAAAAACGCGAAAGCGTTTCACGATAATGCGAAAAC [MuA adapter X],activity on this sequence,active
